PubChem BioAssay AID1671195, Yale University, 2021
Test: 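Regulators of LDL receptor activity judged by labelled LDL uptake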 (primary screen). Cells: human Huh7 hepatoma cells. Knock-down reagent: siRNA pool against human genes, 18 nM. Timing: about 2 to 2.5 days of knockdown, then 8 h LDL uptake. Treatment: DiI-labelled LDL at 30 µg/ml for 8 h, in lipoprotein-deficient serum medium. Detection: 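Fluorescent LDL signal imaged in cells, scaled to the plate median, robust z-score for each replicate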. Direction: robust z-score: higher = more LDL uptake after knockdown. Rule for the call: 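a gene counts as active if at least two replicate z-scores exceed ±2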.
In all, the deposit lists about 22,000 reagents; shown is a random part of them. Of all reagents, about 1,510 (6.9%) got an active call. 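Active includes knockdowns raising or lowering LDL uptake; positive z-scores mean more uptake, negative mean less.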 Reagent sequences are not shown.

| target gene | robust z-score, replicate 1 | robust z-score, replicate 2 | robust z-score, replicate 3 | activity call |
| --- | --- | --- | --- | --- |
| YJU2B (YJU2 splicing factor homolog B) | -0.628 | -1.42 | -0.891 | inactive |
| FOXE3 (forkhead box E3) | 1.32 | 0.364 | -0.156 | inactive |
| CCDC198 (coiled-coil domain containing 198) | -0.364 | -1.16 | 0.89 | inactive |
| PBX1 (PBX homeobox 1) | 1.34 | 1.64 | 1.5 | inactive |
| CCDC86 (coiled-coil domain containing 86) | 0.3 | -0.249 | 1.41 | inactive |
| CRTC1 (CREB regulated transcription coactivator 1) | -1.41 | 0.823 | -2.12 | inactive |
| CFAP298 (cilia and flagella associated protein 298) | -1.34 | -0.243 | -0.299 | inactive |
| OR5K1 (olfactory receptor family 5 subfamily K member 1) | 1.5 | 1.92 | 1.84 | inactive |
| CLEC6A (C-type lectin domain containing 6A) | -0.437 | -0.0605 | 0.0386 | inactive |
| B3GNT7 | 0.578 | 2.24 | 2.09 | active |
| NOL7 (nucleolar protein 7) | -0.52 | 0.34 | 0.461 | inactive |
| ZNF311 (zinc finger protein 311) | 2.36 | 2.64 | 2.47 | active |
| CHURC1 (churchill domain containing 1) | -1.12 | -1.5 | -1.77 | inactive |
| RPL23AP44 (ribosomal protein L23a pseudogene 44) | 2.57 | 1.97 | 2.59 | active |
| TMEM14A (transmembrane protein 14A) | 2.74 | 1.85 | 2.79 | active |
| NIPA2 (NIPA magnesium transporter 2) | 2.37 | 2.75 | 3.2 | active |
| TTC23 (tetratricopeptide repeat domain 23) | -0.0322 | 0.431 | 0.0533 | inactive |
| CA5A (carbonic anhydrase 5A) | 1.61 | 1.46 | 1.05 | inactive |
| FECH (ferrochelatase) | -1.26 | -0.0765 | -0.738 | inactive |
| OR2C1 (olfactory receptor family 2 subfamily C member 1) | 0.511 | 0.225 | 0.529 | inactive |
| GID8 (GID complex subunit 8 homolog) | 0.00542 | -0.555 | -1.86 | inactive |
| THOC2 (THO complex subunit 2) | -1.33 | -0.95 | -1.28 | inactive |
| SOCS4 (suppressor of cytokine signaling 4) | -0.361 | -0.59 | -0.712 | inactive |
| CISD1 (CDGSH iron sulfur domain 1) | 0.167 | -0.0728 | 2.22 | inactive |
| MXD3 (MAX dimerization protein 3) | -1.05 | -0.893 | -1.15 | inactive |
| DDX24 (DEAD-box helicase 24) | 0.553 | -0.951 | -0.869 | inactive |
| PREX1 | -1.73 | -2.26 | -0.0987 | inactive |
| UBALD1 (UBA like domain containing 1) | 0.261 | 0.942 | 0.783 | inactive |
| SEC63 (SEC63 protein translocation regulator) | -0.312 | 0.164 | -0.156 | inactive |
| SCNM1 (sodium channel modifier 1) | -0.621 | -0.797 | -0.484 | inactive |
| TGFB2 (transforming growth factor beta 2) | 0.81 | 0.48 | -0.9 | inactive |
| MRM3 (mitochondrial rRNA methyltransferase 3) | -1 | -1.07 | -0.868 | inactive |
| PCM1 (pericentriolar material 1) | -0.174 | -0.796 | 0.139 | inactive |
| LOC339685 | 0.815 | 0.665 | 0.482 | inactive |
| LIPI (lipase I) | -4.86 | 2.31 | 2.85 | active |
| PTPN6 (protein tyrosine phosphatase non-receptor type 6) | -0.162 | -0.0276 | -0.247 | inactive |
| CCT2 (chaperonin containing TCP1 subunit 2) | 0.351 | 0.255 | 0.759 | inactive |
| TAF6 (TATA-box binding protein associated factor 6) | -0.618 | -0.477 | -0.165 | inactive |
| PBRM1 (polybromo 1) | -1.17 | -0.388 | -0.826 | inactive |
| R3HCC1L (R3H domain and coiled-coil containing 1 like) | 0.489 | 0.221 | -0.82 | inactive |
| GYPB (glycophorin B (MNS blood group)) | -1.1 | -0.162 | -0.708 | inactive |
| RND3 (Rho family GTPase 3) | -1.25 | -0.237 | -0.888 | inactive |
| TRIM22 (tripartite motif containing 22) | -1.05 | -1.95 | -1.03 | inactive |
| BATF (basic leucine zipper ATF-like transcription factor) | 0.0579 | -0.195 | -0.137 | inactive |
| STRAP (serine/threonine kinase receptor associated protein) | 3.34 | 2.19 | 1.64 | active |
| GINM1 (glycosylated integral membrane protein 1) | 1.21 | 1.74 | 2.55 | inactive |
| TOMM20L (translocase of outer mitochondrial membrane 20 like) | 1.22 | 0.691 | 1.5 | inactive |
| CWF19L1 (CWF19 like cell cycle control factor 1) | 1.3 | 1.2 | 0.448 | inactive |
| ZCWPW2 (zinc finger CW-type and PWWP domain containing 2) | -0.323 | -0.13 | -0.619 | inactive |
| LOC388489 (retired record) | 1.62 | 1.61 | 1.6 | inactive |
| SAMTOR (S-adenosylmethionine sensor upstream of mTORC1) | 2.48 | 2.6 | 2.94 | active |
| E2F5 (E2F transcription factor 5) | 1.47 | 1.09 | 0.134 | inactive |
| PPP2R5D (protein phosphatase 2 regulatory subunit B'delta) | -0.0995 | 0.0814 | 0.238 | inactive |
| CXCL11 (C-X-C motif chemokine ligand 11) | 0.312 | 0.41 | 0.0852 | inactive |
| APOOL (apolipoprotein O like) | -2.12 | -1.55 | -1.29 | inactive |
| ENO1 (enolase 1) | 1.48 | -0.139 | 1.43 | inactive |
| KRT16 (keratin 16) | -0.812 | -0.855 | -0.409 | inactive |
| UNC45A (unc-45 myosin chaperone A) | 1.26 | -0.594 | 1.09 | inactive |
| WFS1 (wolframin ER transmembrane glycoprotein) | -0.478 | -1.8 | -0.469 | inactive |
| KLHL26 (kelch like family member 26) | 0.92 | 0.578 | -0.342 | inactive |
| PCMTD1 | -0.00851 | -0.481 | -0.209 | inactive |
| TTLL4 (tubulin tyrosine ligase like 4) | -0.919 | -0.281 | -0.694 | inactive |
| ZP2 (zona pellucida glycoprotein 2) | 0.576 | -1.23 | -0.394 | inactive |
| LOC441868 (retired record) | -0.798 | -0.651 | -0.804 | inactive |
| SYNRG (synergin gamma) | -0.92 | -1.7 | -0.69 | inactive |
| PLSCR4 (phospholipid scramblase 4) | -0.586 | 0.44 | 0.456 | inactive |
| MGLL (monoglyceride lipase) | -2.18 | -2.38 | -2 | active |
| LOC400212 | 0.875 | 0.811 | 0.398 | inactive |
| LOC399713 (retired record) | 0.353 | -0.00267 | -0.0782 | inactive |
| EVA1A (eva-1 homolog A, regulator of programmed cell death) | 0.428 | 0.561 | 0.364 | inactive |
| FLJ44385 (retired record) | 1.33 | 1.23 | 0.998 | inactive |
| LAPTM4B (lysosomal protein transmembrane 4 beta) | 2.18 | -0.412 | 1.4 | inactive |
| GINS4 (GINS complex subunit 4) | -0.117 | -0.319 | -0.716 | inactive |
| FAM13A (family with sequence similarity 13 member A) | 0.37 | -0.603 | -0.147 | inactive |
| YY1 (YY1 transcription factor) | 2.41 | 1.36 | 1.54 | inactive |
| SPINK14 (serine peptidase inhibitor Kazal type 14 (putative)) | 0.969 | 0.722 | 0.304 | inactive |
| MRPS15 (mitochondrial ribosomal protein S15) | 1.21 | 0.895 | 1.11 | inactive |
| LOC440427 (retired record) | 0.215 | -0.0618 | 1.22 | inactive |
| TTC16 (tetratricopeptide repeat domain 16) | -0.469 | 0.406 | 0.0319 | inactive |
| PVALB (parvalbumin) | 0.192 | 0.798 | 0.272 | inactive |
| LOC441157 (retired record) | -1.1 | -1.49 | -1.46 | inactive |
| AKR7L (aldo-keto reductase family 7 like (gene/pseudogene)) | 0.229 | 0.141 | 0.159 | inactive |
| BEND6 (BEN domain containing 6) | -0.481 | -0.733 | -0.549 | inactive |
| COA4 (cytochrome c oxidase assembly factor 4 homolog) | -0.0833 | 1.51 | 1.04 | inactive |
| GGH (gamma-glutamyl hydrolase) | -0.389 | 0.259 | 0.00482 | inactive |
| NT5M (5',3'-nucleotidase, mitochondrial) | 0.36 | 0.581 | 0.292 | inactive |
| ANAPC1 (anaphase promoting complex subunit 1) | -0.77 | -0.781 | -0.536 | inactive |
